Measured values as given in patent EP1056778B1, “G PROTEIN-COUPLED RECEPTOR ANTAGONISTS” (priority 1998, dated 1999).
At least one peptide structure holds a part that was inferred or is arguable (an end, a ring closure or a residue). Where a SMILES comes first, the peptide text is derived from it.

Protein sequences, listed by entry. Tags and fused reporters are not part of them.
UniProt P51681, whole entry: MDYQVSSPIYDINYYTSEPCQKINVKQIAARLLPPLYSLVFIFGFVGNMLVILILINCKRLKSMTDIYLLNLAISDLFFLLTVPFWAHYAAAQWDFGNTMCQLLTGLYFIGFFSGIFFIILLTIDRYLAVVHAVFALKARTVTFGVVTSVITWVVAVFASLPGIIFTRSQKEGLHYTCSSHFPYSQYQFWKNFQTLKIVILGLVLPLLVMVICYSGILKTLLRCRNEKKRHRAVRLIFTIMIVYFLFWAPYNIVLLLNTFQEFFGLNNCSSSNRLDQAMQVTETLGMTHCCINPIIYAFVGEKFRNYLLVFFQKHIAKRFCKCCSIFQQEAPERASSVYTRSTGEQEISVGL
UniProt P61073, whole entry: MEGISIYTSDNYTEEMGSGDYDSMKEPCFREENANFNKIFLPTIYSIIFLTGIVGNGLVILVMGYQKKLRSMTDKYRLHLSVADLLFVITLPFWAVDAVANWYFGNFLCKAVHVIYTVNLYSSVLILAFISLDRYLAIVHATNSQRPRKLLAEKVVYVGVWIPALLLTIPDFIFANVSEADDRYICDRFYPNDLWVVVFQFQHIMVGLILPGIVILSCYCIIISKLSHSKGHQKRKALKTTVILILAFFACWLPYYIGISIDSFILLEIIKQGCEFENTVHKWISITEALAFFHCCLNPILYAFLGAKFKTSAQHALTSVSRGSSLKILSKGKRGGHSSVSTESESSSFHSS

Tests used:
Assay type in all cases: cell-based
[1] = system: LAV strain of HIV-1; assay: Anti-HIV-1 assay, CEM-SS cells infected with LAV strain, viral p24 by ELISA; conditions: Fig. 1
[2] = molecular target: T1, CCR5 (Homo sapiens, UniProt P51681); assay: Inhibition of agonist (RANTES)-evoked intracellular calcium release through CCR5; conditions: U87 cells
T1 construct: expressed in transfected cells

[3] = molecular target: CXCR4 (Homo sapiens, UniProt P61073); assay: Inhibition of SDF-1α-induced intracellular calcium release (Fura-2/AM, HeLa and U87 cells expressing CXCR4)
Description: The effect of the peptides on CXCR4-mediated calcium fluxes in HeLa cells that naturally express the CXCR4 receptor and U87 cells stably expressing the CXCR4 receptor was tested as follows. Cells grown on Nunc cover glass chamber slides were incubated with 1 micromolar Fura-2/AM for 20 min in a CO2-incubator, rinsed with PBS and mounted on the stage of a Zeiss Axiovert inverted microscope. [Ca^2+]i measurements were performed using an Attofluor digital imaging system (Atto Instruments, Rockville, MD). Fluorescence of Fura was excited at alternating wavelength of 340 and 380 nm. Fluorescence was monitored by an intensified CCD camera using a 505 cut-off filter. Calibrations of [Ca^2+]i signals were performed using Ca^2+ standards containing 1 micromolar Fura. CXCR4 antagonists were tested on HeLa cells and U87 cells. […]
CCR5 antagonists, which were used in selectivity studies as described below, were tested on HEK (human kidney […]) cells stably expressing the CCR5 receptor and RANTES was used as an agonist. The antagonist activity of the peptides was evaluated by measuring the inhibition of agonist-evoked intracellular Ca^2+i release. […]
Table 2. […] Anti signaling activity was determined in inhibition of SDF-1α-induced intracellular calcium release. Anti-HIV-1 activity was assessed in cytoprotection assay utilizing CEM-SS cells infected with HIV-1RF.

Structure (SMILES) | concentration that completely inhibited infection [1] [µM] | concentration that completely abolished agonist induced signaling of CCR5 [2] [nM] | antagonist activity on CXCR4 signaling (in words) [3]
CC[C@H](C)[C@H](NC(=O)[C@@H](NC(=O)[C@H](Cc1ccccc1)NC(=O)[C@H](CC(C)C)NC(=O)[C@@H](N)CC(C)C)C(C)C)C(=O)N[C@H](C(=O)N[C@@H](CC(C)C)C(=O)N1CCC[C@H]1C(=O)N[C@@H](Cc1ccccc1)C(=O)N[C@@H](Cc1c[nH]c2ccccc12)C(=O)N[C@@H](C)C(=O)N[C@H](C(=O)N[C@@H](CC(=O)O)C(=O)N[C@@H](C)C(=O)N[C@H](C(=O)N[C@@H](C)C(=O)N[C@@H](CC(N)=O)C(=O)N[C@@H](Cc1c[nH]c2ccccc12)C(=O)N[C@@H](Cc1ccc(O)cc1)C(=O)N[C@@H](Cc1ccccc1)C(=O)NCC(=O)N[C@@H](CC(N)=O)C(=O)N[C@@H](CC(=O)O)C(=O)N[C@@H](CC(=O)O)C(=O)O)C(C)C)C(C)C)[C@@H](C)O [Peptide F-2-2] (H-LLFVITLPFWAVDAVANWYFGNDD-OH) | 5 |  | 
CC(C)C[C@H](NC(=O)[C@H](Cc1ccccc1)NC(=O)[C@H](Cc1ccccc1)NC(=O)[C@@H](N)CC(C)C)C(=O)N[C@@H](CC(C)C)C(=O)N[C@H](C(=O)N[C@H](C(=O)N1CCC[C@H]1C(=O)N[C@@H](Cc1ccccc1)C(=O)N[C@@H](Cc1c[nH]c2ccccc12)C(=O)N[C@@H](C)C(=O)N[C@@H](Cc1c[nH]cn1)C(=O)N[C@@H](Cc1ccc(O)cc1)C(=O)N[C@@H](C)C(=O)N[C@@H](C)C(=O)N[C@@H](C)C(=O)N[C@@H](CCC(N)=O)C(=O)N[C@@H](Cc1c[nH]c2ccccc12)C(=O)N[C@@H](CC(=O)O)C(=O)N[C@@H](Cc1ccccc1)C(=O)NCC(=O)N[C@@H](CC(=O)O)C(=O)N[C@@H](CC(=O)O)C(=O)O)C(C)C)[C@@H](C)O [CCR5-TM-2-2, LFFL LTVPFWAHYAAAQWDFGDD] (H-LFFLLTVPFWAHYAAAQWDFGDD-OH) |  | 500 | had no effect on signaling of CXCR4
